The record followed here is PubChem BioAssay AID2685 (National Center for Advancing Translational Sciences (NCATS), 2010).

This is one part of the list. Further columns of the screen follow, without active or inactive calls. The list favours compounds with an active or inconclusive main result. Potencies come from curve fits of mixed quality, noted in brackets.

The test can be described thus: qHTS Assay for Lipid Storage Modulators in Drosophila S3 Cells.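 For cell number change: cells counted by Cell Tracker Red CMTPX staining in the red channel.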 To be noted: BODIPY lipid droplet fluorescence, 18-24 h; for cell number change: measured here: cell count max response, cells fed with added oleic acid. An outline of the steps:
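Drosophila S3 cells loaded with oleic acid (400 uM, as added) and compounds at several concentrations; lipid droplets imaged by 488-nm laser-scanning cytometry, 500–530 nm intensity and object ratio to cell channel. Percent activity normalized to 20 uM Triacsin C.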
(In qHTS, concentration-response curves come from the screen itself.)

[1] abbreviates: measured here: lipid fluorescence (Fed channel) AC50, cells fed with added oleic acid.
Where [2] appears, read: measured here: cell number channel AC50, cells fed with added oleic acid.

The AC50 is the concentration giving half of the maximal activity seen. `Cc1cccc(NC(=O)NCc2cccnc2)c1C`: the cell number change was -5.2%. The AC50 under setting [1] was 0.82 µM [falling, single point].

For the molecule `CC(C)(C)NS(=O)(=O)c1cc2c3c(c1)CCN3C(=O)CC2`, the cell number change was -2.8%.

As for `COC(=O)c1[nH]c2cccc(OC)c2c1NC(=O)CN1CC(C)OC(C)C1` (centres undefined), the cell number change came to 46.1%. The AC50 under setting [2] was 16.4 µM [rising, single point]. Moreover, the AC50 under setting [1] is 0.517 µM [rising, single point].

For `COc1ccc(S(=O)(=O)N2CCOC23CCN(S(=O)(=O)c2ccc([N+](=O)[O-])cc2)CC3)cc1`, the cell number change is -7.02%.

Consider `CCOc1ccc(S(=O)(=O)N2CCc3ccccc3C2)cc1`, for which the cell number change came to 30.7%. Moreover, the half-maximal activity concentration (AC50) under setting [2] was 29.1 µM [rising, single point]. Besides, under setting [1], the half-maximal activity concentration (AC50) is 0.103 µM [falling, full curve, poor fit].

For `CCCn1nnnc1NC(=O)COc1ccc(CC)cc1`, the cell number change was -33.3%. Moreover, under setting [2], the concentration at half-maximal activity (AC50) is 4.11 µM [falling, full curve, poor fit].

Consider `COc1ccc(-c2nc3ccc(C)cn3c2NCc2ccccc2)cc1SC1CCCCC1`, for which the cell number change is -11.9%. Also, the concentration at half-maximal activity (AC50) under setting [2] is 1.64 µM [falling, partial curve]. For the same molecule, the AC50 under setting [1] was 4.11 µM [falling, partial curve].

Take `C=CCn1cc(/C=N\NC(=O)c2cc3c(ccc4ccccc43)o2)c2ccccc21`: the cell number change was -10.6%.

Consider `O=C(OCc1ccccc1)c1ccc2c(c1)-c1ccccc1C2=O`, for which the cell number change was 58.3%. Moreover, under setting [2], the AC50 was 18.4 µM [rising, single point].

On to `O=C(NN=C1c2ccccc2-c2ccccc21)c1cccc(Br)c1`, for which the cell number change was -40.4%. For the same molecule, the half-maximal activity concentration (AC50) under setting [2] is 5.8 µM [falling, full curve]. For the same molecule, under setting [1], the AC50 is 6.51 µM [falling, partial curve].

For `O=C1C=CC(=O)N1c1ccc(OC(F)F)cc1`, the cell number change was -74.8%. Further, the concentration at half-maximal activity (AC50) under setting [2] was 25.9 µM [falling, partial curve]. Also, under setting [1], the AC50 was 29.1 µM [falling, partial curve, poor fit].

For the molecule `CCN(CC(=O)NCc1ccc(Cl)cc1)C(=O)COc1cccc(Cl)c1`, the cell number change is -8.26%. Moreover, the AC50 under setting [1] was 9.2 µM [falling, partial curve, poor fit].

Consider `CC(=O)Nc1cccc(NC(=O)Nc2ccc(C)c(Cl)c2)c1`, for which the cell number change is -42.8%.

Regarding `COc1cc(CN2CCC(n3nccc3NC(=O)CCCc3ccccc3)CC2)ccc1F`, the cell number change worked out at 0.917%. In addition, the AC50 under setting [1] was 0.13 µM [rising, full curve, poor fit].

For `Nc1nc(NC2CCCCC2)nc(NCCO)c1[N+](=O)[O-]`, the cell number change was determined as 6.94%.

With `CCOC(=O)C1CCCN(S(=O)(=O)c2ccc3c(c2)N(C(C)=O)CCO3)C1` (centres undefined), the concentration at half-maximal activity (AC50) under setting [2] was 1.64 µM [falling, partial curve].

`CC(C)(C)c1cc(/C=C2\NC(=O)NC2=O)cc(C(C)(C)C)c1O`: the cell number change is -30.3%. Moreover, the AC50 under setting [2] was 18.4 µM [falling, single point]. Moreover, the half-maximal activity concentration (AC50) under setting [1] is 8.2 µM [falling, partial curve].
